Test results taken from PubChem BioAssay AID624291 (National Center for Advancing Translational Sciences (NCATS), 2012).
About 220 (0.063%) of roughly 350,000 compounds were called active. Inconclusive results, whose numbers are uncertain, are shown with a selection of clear calls. Calls come from the whole dose curve; as a rule, active = well fitted activation curve with a large enough effect; inconclusive = small, poorly fitted or top-dose-only effect; inactive = no such curve, though single readings can be large or run the other way. Where the call is inconclusive, the potency comes from a doubtful curve fit.

Test: qHTS for Activators of Integrin-Mediated Alleviation for Muscular Dystrophy; note: nearly all actives have a fitted effect of over 60% in size
Details: alpha7betagal myoblasts, beta-gal FDG fluorescence, 48 h; series mostly up to 38.3 µM
In short: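 alpha7betagal+/- myoblasts (passage 13, 250/well) treated 48 h at 37C with compounds at 1:260 dilution of DMSO stock. Lysed, then beta-galactosidase activity read as FDG fluorescence (ex 480/em 540) after 30 min, with pre-read for autofluorescence.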
Potency is the fitted concentration of half-maximal effect.

| Compound | Potency |
| --- | --- |
| N#CCSc1ccc(-c2nc3ccccc3[nH]2)cn1 | inconclusive: 5.01 µM [activator, single point] |
| Cc1snc(SCC(=O)c2ccc(Cl)cc2)c1C#N | inactive |
| Cc1ccc(NC(=O)Cn2nc(C)c([N+](=O)[O-])c2C)cc1Cl | inactive |
| Cn1c(=O)c(C(=O)CN2CCN(Cc3ccc4c(c3)OCO4)CC2)c(N)n(Cc2ccccc2)c1=O | inconclusive: 3.16 µM [activator, single point] |
| Clc1cccc(-c2ccc(C=Nc3ccc(N4CCOCC4)cc3)o2)c1Cl | inactive |
| c1ccc2c(CN3CCCCC3)csc2c1 | inactive |
| Cc1cccc(NC(=O)NCCc2c[nH]c3ccccc23)c1 | inactive |
| O=C1c2cccc3cc([N+](=O)[O-])cc(c23)C(=O)N1c1ccccc1O | inactive |
| Cn1c(=O)c2c(nc(CN3CCN(c4ccccc4)CC3)n2CCCc2ccccc2)n(C)c1=O | inactive |
| O=C(CN(C(=O)CNS(=O)(=O)c1ccccc1)c1ccc(F)cc1)NCc1ccco1 | inconclusive: 2.24 µM [activator, partial curve, poor fit] |
| CCCN(CCC)C(=O)C1CCCN1S(=O)(=O)c1cccc2nsnc12 (configuration not stated) | inconclusive: 3.55 µM [activator, partial curve, poor fit] |
| Cc1ccc(/C=C/C(=O)Nc2sc3c(c2C#N)CCCC3)o1 | inconclusive: 5.01 µM [activator, single point] |
| CC(=O)Nc1c(C)nn(-c2ccc([N+](=O)[O-])cc2)c1C | inconclusive: 2.51 µM [activator, partial curve, poor fit] |
| O=C(Nc1ccncc1)Nc1ccc(F)cc1 | inconclusive: 5.01 µM [activator, partial curve, poor fit] |
| CN1CCN(c2ncnc3scc(-c4ccccc4Cl)c23)CC1 | inconclusive: 7.08 µM [activator, partial curve, poor fit] |
| CSCCC(NC(=O)c1ccc(Cl)cc1Cl)C(=O)NNC(=O)c1csc(N2CCOCC2)n1 (configuration not stated) | inconclusive: 0.501 µM [activator, partial curve, poor fit] |
| CC1CC(C)CN(S(=O)(=O)N2CCC(C(=O)NCCC3=CCCCC3)CC2)C1 (configuration not stated) | inconclusive: 2.82 µM [activator, partial curve, poor fit] |
| Nc1c(C(=O)Nc2ccccc2)c2nc3ccccc3nc2n1CCCN1CCOCC1 | inactive |
| Cc1ccc(S(=O)(=O)N/N=C\c2cn(-c3ccccc3)nc2-c2ccccc2)cc1 | inconclusive: 0.891 µM [activator, full curve, poor fit] |
| C=CCOC(=O)c1cn(CC)c2nc(C)ccc2c1=O | inactive |
| COc1ccc(/C=N/OCC(=O)Nn2c(C)nc3ccccc3c2=O)cc1 | inactive |
| O=C(CCSc1ccc(Cl)cc1)N1CCN(S(=O)(=O)c2ccccc2)CC1 | inconclusive: 5.01 µM [activator, single point] |
| Cn1c(=O)c(=O)n(C)c2cc(S(=O)(=O)CCC(=O)Nc3ccc(C(F)(F)F)cc3)ccc21 | inconclusive: 28.2 µM [activator, single point] |

Copied from the list.
Potency, COc1ccc(/C=N/OCC(=O)Nn2c(C)nc3ccccc3c2=O)cc1 reads inactive
Potency, Cn1c(=O)c(C(=O)CN2CCN(Cc3ccc4c(c3)OCO4)CC2)c(N)n(Cc2ccccc2)c1=O reads inconclusive: 3.16 µM [activator, single point]
Potency, Cc1ccc(NC(=O)Cn2nc(C)c([N+](=O)[O-])c2C)cc1Cl reads inactive
Potency, Cc1cccc(NC(=O)NCCc2c[nH]c3ccccc23)c1 reads inactive
Potency, CC1CC(C)CN(S(=O)(=O)N2CCC(C(=O)NCCC3=CCCCC3)CC2)C1 (configuration not stated) reads inconclusive: 2.82 µM [activator, partial curve, poor fit]
Potency, CCCN(CCC)C(=O)C1CCCN1S(=O)(=O)c1cccc2nsnc12 (configuration not stated) reads inconclusive: 3.55 µM [activator, partial curve, poor fit]

Following part.

| Compound | Potency |
| --- | --- |
| CCOC(=O)c1[nH]c(C)c(C(=O)OCC(=O)NC2CCS(=O)(=O)C2)c1C (configuration not stated) | inconclusive: 3.16 µM [activator, partial curve, poor fit] |
| NNC(=O)CN1C(c2ccc(Br)cc2)=Nc2ccc(Br)cc2C1c1ccccc1 (configuration not stated) | inconclusive: 5.01 µM [activator, partial curve, poor fit] |
| CCn1c(CSCc2ccc(Cl)cc2)nnc1SCC(=O)Nc1cccc(C(=O)O)c1 | inconclusive: 2.24 µM [activator, full curve, poor fit] |
| COC(=O)CCNC(=O)CCc1ccc(S(=O)(=O)N2CCCCCC2)cc1 | inconclusive: 28.2 µM [activator, single point] |
| Cc1ccc(NC(=O)Cc2cn(C)c3ccccc23)cc1F | inconclusive: 28.2 µM [activator, single point] |
| COc1ccccc1CCC(=O)OCC(=O)Nc1cccc(S(=O)(=O)N2CCOCC2)c1 | inconclusive: 12.6 µM [activator, partial curve, poor fit] |
| COc1ccc(N(C)S(=O)(=O)c2cccc3nsnc23)cc1 | inconclusive: 2.82 µM [activator, partial curve, poor fit] |
| Cc1cc(C(=O)NC(C)C2CCCO2)no1 (configuration not stated) | inconclusive: 3.16 µM [activator, single point] |
| COc1ccc(-n2cnnc2)cc1 | inconclusive: 0.316 µM [activator, full curve, poor fit] |
| COc1ccc(C(=O)Nc2ccc(Nc3ccccc3)cc2)cc1Br | inactive |
| CCNc1sc(C(=O)OCC)c(N)c1C#N | inconclusive: 22.4 µM [activator, single point] |
| N#Cc1c2c(c(Nc3ccccc3)n3c1nc1ccccc13)CCC2 | inconclusive: 3.55 µM [activator, partial curve, poor fit] |
| CCN(CC(=O)NCC1CCCO1)S(=O)(=O)c1ccc(Cl)cc1 (configuration not stated) | inconclusive: 15.8 µM [activator, partial curve, poor fit] |
| CNC(=O)CSc1nc2[nH]ncc2c(=O)[nH]1 | inconclusive: 2 µM [activator, partial curve, poor fit] |
| COc1ccc(CCNC(=O)c2ccc(CS(=O)(=O)Cc3cccc(C)c3)o2)cc1OC | inconclusive: 0.501 µM [activator, full curve, poor fit] |
| COC(=O)C1=NNC2(C)C(=O)N(c3ccc(C)cc3)C(=O)C12 (configuration not stated) | active: 10 µM |
| CCNC(=S)NNC(=O)c1cc(C)on1 | inactive |
| O=Cc1cn(CC(O)CN2CCCCC2)c2ccccc12 (configuration not stated) | inconclusive: 20 µM [activator, single point] |
| S=C(NCCCCc1ccccc1)NCc1ccccc1 | inconclusive: 0.891 µM [activator, full curve, poor fit] |
| C=CCn1c(SCCCc2ccccc2)nc2c1c(=O)[nH]c(=O)n2C | inconclusive: 28.2 µM [activator, single point] |
| COc1cc(C(=O)NCc2ccc(F)cc2)cc(Cl)c1OC | inconclusive: 11.2 µM [activator, partial curve, poor fit] |
| COc1ccc(OCC(=O)Nc2ccccc2N2CCN(C)CC2)cc1 | inconclusive: 11.2 µM [activator, single point] |
| Nc1ccccc1-c1nnc(-c2ccccc2N)n1N | inconclusive: 7.94 µM [activator, partial curve, poor fit] |

| Compound | Potency |
| --- | --- |
| CC1/C(=N/O)C(CN(C)C)C2CC1C2(C)C (configuration not stated) | inactive |
| O=C(O)/C=C/c1cccc(NC(=O)Nc2ccc([N+](=O)[O-])cc2)c1 | inconclusive: 22.4 µM [activator, single point] |
| O=C(Nc1cc(S(=O)(=O)N2CCCCC2)ccc1Cl)c1ccncc1 | inconclusive: 0.501 µM [activator, full curve, poor fit] |
| CCOC(=O)C1CCN(C(=O)c2cccc(S(=O)(=O)N3CCc4ccccc43)c2)CC1 | inconclusive: 3.55 µM [activator, partial curve, poor fit] |
| CCN(CC)C(=O)CSc1nc(COc2ccccc2)nc2ccccc12 | inconclusive: 8.91 µM [activator, partial curve, poor fit] |
| COc1ccccc1C(=O)NNC(=O)c1cccc([N+](=O)[O-])c1 | inconclusive: 12.6 µM [activator, single point] |
| C(=N\N=C\c1cccs1)/c1cccs1 | inconclusive: 1.26 µM [activator, partial curve, poor fit] |
| COCCn1c(=S)[nH]c2cc(C(=O)N3CCCC(C)C3)ccc2c1=O (configuration not stated) | inconclusive: 2.24 µM [activator, partial curve, poor fit] |
| CN(Cc1ccccc1)C(=O)c1ccco1 | inconclusive: 28.2 µM [activator, single point] |
| CCOC(=O)c1cc(-c2cccs2)nc2c1c(C)nn2-c1ccccn1 | inconclusive: 2.51 µM [activator, full curve, poor fit] |
| CCOC(=O)C1CCN(C(=S)Nc2ccc(Cl)cc2C)CC1 | inactive |
| CCCCCCNc1cc2n(c(=O)n1)CCc1cc(OC)c(OC)cc1-2 | inconclusive: 7.08 µM [activator, partial curve] |
| NC(=O)NN=C1C2CCCC1C(c1ccccc1)NC2c1ccccc1 (configuration not stated) | inconclusive: 10 µM [activator, partial curve, poor fit] |
| Cc1ccc(NC(=O)Cn2cnc([N+](=O)[O-])c2)cc1C | inconclusive: 10 µM [activator, partial curve] |
| CCOC(=O)c1ccc(NC(=O)Cn2nnc(-c3ccccc3F)n2)cc1 | inconclusive: 5.01 µM [activator, single point] |
| COc1cc(OC)c(-c2nn3c(-c4ccco4)nnc3s2)cc1OC | inconclusive: 5.01 µM [activator, single point] |
| COC(=O)/C(C#N)=C/c1c(Oc2cc(C)cc(C)c2)nc2ccccn2c1=O | inconclusive: 28.2 µM [activator, single point] |
| Cc1ccc(NC(=O)c2cccs2)cc1 | inconclusive: 3.55 µM [activator, partial curve, poor fit] |
| Cn1c(NC2CCCCC2)cc(=O)n(C)c1=O | inactive |
| Cc1cc(N2CCN(S(=O)(=O)c3ccc(Cl)cc3)CC2)c2ccccc2n1 | inactive |
| Cc1csc(NC(=S)Nc2cccc(Cl)c2)n1 | inconclusive: 1.41 µM [activator, partial curve, poor fit] |
